In patent US20250057864A1, “COMPOSITION FOR IMPROVING EXERCISE PERFORMANCE COMPRISING GYPENOSIDE COMPOUND AS ACTIVE INGREDIENT” (BTC CORPORATION, priority 2022, published 2025):

Legend:
ICR mice = experiment: Weight of liver and muscles; type: in vivo; conditions: 6 weeks
Protocol: After an acclimatization period of 1 week, healthy animals were selected and divided into 6 groups according to the randomized block design. The animals were divided into (G1) a non-exercise control group, (G2) a non-exercise+7 mg/kg body weight (BW) Example 1 group, (G3) a non-exercise+7 mg/kg BW Example 2 group, (G4) a non-exercise+7 mg/kg BW Example 3 group, (G5) a non-exercise+7 mg/kg BW Example 4 group, (G6) an exercise control group, (G7) an exercise+7 mg/kg BW Example 1 group, (G8) an exercise+7 mg/kg BW Example 2 group, (G9) an exercise+7 mg/kg BW Example 3 group, (G10) an exercise+7 mg/kg BW Example 4 group, and (G11) an exercise+75 mg/kg BW Cr dose group. Each test group consisted of 10 animals.
Before sacrificing, the experimental animal was anesthetized using an anesthetic prepared by dilution of tribromoethanol with tertiary amyl alcohol and blood was taken from the eye socket. The blood was placed in a serum-separating tube (Becton Dickinson) and left at room temperature for 30 minutes, centrifuged at 5,000 rpm for 10 minutes to separate the serum, and kept at −70° C. until analysis. After the blood sampling, the experimental animal was sacrificed and the liver and skeletal muscles [quadriceps femoris muscle (QF), gastrocnemius muscle (GA), soleus muscle (SOL), and extensor digitorum longus muscle (EDL)] were extracted. Their weight was measured after rinsing with cold physiological saline and removing excess water with filter paper. A portion of the soleus muscle (SOL) was fixed with 4% paraformaldehyde (PFA) and then embedded in paraffin for histoimmunological staining. Also, total RNA was isolated from a portion of the soleus muscle and subjected to real-time RT-PCR. Proteins were isolated from a portion of the gastrocnemius muscle (GA) and subjected to western blot. The remaining tissue was kept at −70° C. until analysis.
After the end of the test, the weight of the muscles and liver of the experimental animals was measured.
Since the body weight of the experimental animals was decreased due to exercise and the administration of the test substances, the relative weight of the muscles and liver per 100 g of body weight was calculated and shown in Table 23.

[1] = Body weight of experimental animals, study with treadmill exercise; type: in vivo, ICR mice
[2] = treadmill exercise, 7 mg/kg BW (Cr 75 mg/kg BW)

Compound | Relative weight of liver (ICR mice; [2]) | Weight of liver (ICR mice; [2]) | Body weight Week 2 [1, 2] | Body weight Week 4 [1, 2] | Body weight Week 6 [1, 2] | Relative weight of liver (ICR mice; non-exercise, 7 mg/kg BW) | Weight of liver (ICR mice; non-exercise, 7 mg/kg BW) | Body weight Week 2 ([1]; non-exercise, 7 mg/kg BW) | Body weight Week 4 ([1]; non-exercise, 7 mg/kg BW) | Body weight Week 6 ([1]; non-exercise, 7 mg/kg BW)
CN(CC(=O)O)C(=N)N.O [Cr, Creatine monohydrate, reference compound] | 5.49 g/100 g body weight | 2.08 g | 31.2 ± 0.6 g | 34.0 ± 0.8 g | 38.0 ± 1.0 g |  |  |  |  | 
CC(C)=CCC[C@](C)(O)C1CC[C@]2(C)C1[C@H](O)CC1[C@@]3(C)C[C@@H](O)C(OC4OC(CO)C(O)C(O)C4OC4OC(CO)C(O)C(O)C4O)C(C)(C)C3CC[C@]12C (stereo partly drawn) [Example 1, Gypenoside L] | 5.07 g/100 g body weight | 1.83 g | 30.5 ± 0.4 g | 33.0 ± 0.5 g | 36.6 ± 0.7 g | 4.92 g/100 g body weight | 1.87 g | 32.7 ± 0.7 g | 35.5 ± 1.0 g | 37.9 ± 1.2 g
